No constants are given. Whether binding was seen depends on the method and setting. In cells and extracts the contact can be indirect. A yes stands for co-enrichment or nearness to the bait. Other partners may have been found.
Columns and labels:
Assay in all cases: proximity labelling
[1] = target: FAK (not stated (mouse and non-mouse baits used)) (UniProt P34152)
[2] = target: paxillin (not stated (mouse and non-mouse baits used)) (UniProt Q8VI36)
[3] = target: T1, GIT1 (not stated (mouse and non-mouse baits used)) (UniProt Q68FF6)
T1 sequence: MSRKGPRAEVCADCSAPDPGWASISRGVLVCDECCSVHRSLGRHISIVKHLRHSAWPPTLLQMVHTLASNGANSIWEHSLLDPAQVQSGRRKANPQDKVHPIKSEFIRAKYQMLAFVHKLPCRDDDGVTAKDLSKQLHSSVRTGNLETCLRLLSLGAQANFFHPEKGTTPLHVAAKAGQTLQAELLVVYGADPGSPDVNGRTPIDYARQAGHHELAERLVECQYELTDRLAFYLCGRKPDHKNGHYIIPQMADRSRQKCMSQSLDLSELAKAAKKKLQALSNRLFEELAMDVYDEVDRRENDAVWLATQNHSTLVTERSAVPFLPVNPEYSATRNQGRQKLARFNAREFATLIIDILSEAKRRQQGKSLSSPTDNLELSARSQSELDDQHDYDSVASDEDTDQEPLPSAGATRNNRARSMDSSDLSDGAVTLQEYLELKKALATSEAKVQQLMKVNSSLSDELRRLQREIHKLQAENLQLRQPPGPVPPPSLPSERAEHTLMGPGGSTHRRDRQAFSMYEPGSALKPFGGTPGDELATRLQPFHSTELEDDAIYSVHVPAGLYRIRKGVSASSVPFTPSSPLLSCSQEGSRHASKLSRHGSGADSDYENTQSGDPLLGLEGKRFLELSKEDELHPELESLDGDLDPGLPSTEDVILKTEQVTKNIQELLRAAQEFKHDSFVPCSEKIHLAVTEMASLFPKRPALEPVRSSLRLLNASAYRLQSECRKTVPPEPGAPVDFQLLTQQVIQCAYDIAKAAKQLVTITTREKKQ

Amino acid sequences for entries named in this document (tags omitted).
UniProt P34152: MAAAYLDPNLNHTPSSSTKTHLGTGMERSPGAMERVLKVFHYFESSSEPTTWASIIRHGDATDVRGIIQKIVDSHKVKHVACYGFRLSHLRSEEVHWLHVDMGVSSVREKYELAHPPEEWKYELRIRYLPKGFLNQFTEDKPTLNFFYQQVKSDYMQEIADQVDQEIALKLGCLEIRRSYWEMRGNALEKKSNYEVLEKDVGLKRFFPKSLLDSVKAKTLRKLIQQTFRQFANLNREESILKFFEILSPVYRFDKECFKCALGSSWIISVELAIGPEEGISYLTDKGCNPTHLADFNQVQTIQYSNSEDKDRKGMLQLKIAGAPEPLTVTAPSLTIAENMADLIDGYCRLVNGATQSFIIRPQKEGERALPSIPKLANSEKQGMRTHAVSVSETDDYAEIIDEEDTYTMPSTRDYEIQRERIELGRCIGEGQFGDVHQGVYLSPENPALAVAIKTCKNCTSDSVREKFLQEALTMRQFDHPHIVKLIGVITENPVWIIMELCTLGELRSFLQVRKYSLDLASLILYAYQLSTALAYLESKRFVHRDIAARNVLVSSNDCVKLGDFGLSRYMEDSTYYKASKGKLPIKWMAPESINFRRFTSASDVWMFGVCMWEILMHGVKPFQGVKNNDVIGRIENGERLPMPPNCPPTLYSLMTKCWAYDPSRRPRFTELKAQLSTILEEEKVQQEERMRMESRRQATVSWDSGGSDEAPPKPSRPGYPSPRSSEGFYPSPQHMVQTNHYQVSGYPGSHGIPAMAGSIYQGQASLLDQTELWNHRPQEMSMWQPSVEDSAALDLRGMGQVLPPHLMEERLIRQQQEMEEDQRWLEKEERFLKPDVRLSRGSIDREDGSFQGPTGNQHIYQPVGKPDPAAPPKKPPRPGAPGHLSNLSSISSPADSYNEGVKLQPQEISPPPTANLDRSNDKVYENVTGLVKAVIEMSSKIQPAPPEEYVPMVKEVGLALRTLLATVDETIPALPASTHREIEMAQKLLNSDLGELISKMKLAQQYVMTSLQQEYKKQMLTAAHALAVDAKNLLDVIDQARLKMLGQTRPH
UniProt Q8VI36: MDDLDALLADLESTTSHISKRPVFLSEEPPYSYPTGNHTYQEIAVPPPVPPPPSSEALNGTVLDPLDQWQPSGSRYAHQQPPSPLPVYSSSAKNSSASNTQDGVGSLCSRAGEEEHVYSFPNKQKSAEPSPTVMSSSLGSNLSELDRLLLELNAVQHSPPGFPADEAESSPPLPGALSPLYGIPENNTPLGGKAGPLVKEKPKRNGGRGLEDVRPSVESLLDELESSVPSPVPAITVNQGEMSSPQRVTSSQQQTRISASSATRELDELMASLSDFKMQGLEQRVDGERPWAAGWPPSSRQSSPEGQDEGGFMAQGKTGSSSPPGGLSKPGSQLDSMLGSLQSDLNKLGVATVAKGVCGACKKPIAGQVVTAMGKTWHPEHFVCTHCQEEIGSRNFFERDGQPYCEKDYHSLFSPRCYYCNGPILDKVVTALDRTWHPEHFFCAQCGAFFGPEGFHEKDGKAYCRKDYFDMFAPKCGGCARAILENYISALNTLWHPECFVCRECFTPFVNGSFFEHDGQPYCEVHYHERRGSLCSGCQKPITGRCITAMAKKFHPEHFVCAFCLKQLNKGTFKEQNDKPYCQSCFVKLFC

[4] = target: T2, p130Cas (not stated (mouse and non-mouse baits used)) (UniProt Q61140)
T2 sequence: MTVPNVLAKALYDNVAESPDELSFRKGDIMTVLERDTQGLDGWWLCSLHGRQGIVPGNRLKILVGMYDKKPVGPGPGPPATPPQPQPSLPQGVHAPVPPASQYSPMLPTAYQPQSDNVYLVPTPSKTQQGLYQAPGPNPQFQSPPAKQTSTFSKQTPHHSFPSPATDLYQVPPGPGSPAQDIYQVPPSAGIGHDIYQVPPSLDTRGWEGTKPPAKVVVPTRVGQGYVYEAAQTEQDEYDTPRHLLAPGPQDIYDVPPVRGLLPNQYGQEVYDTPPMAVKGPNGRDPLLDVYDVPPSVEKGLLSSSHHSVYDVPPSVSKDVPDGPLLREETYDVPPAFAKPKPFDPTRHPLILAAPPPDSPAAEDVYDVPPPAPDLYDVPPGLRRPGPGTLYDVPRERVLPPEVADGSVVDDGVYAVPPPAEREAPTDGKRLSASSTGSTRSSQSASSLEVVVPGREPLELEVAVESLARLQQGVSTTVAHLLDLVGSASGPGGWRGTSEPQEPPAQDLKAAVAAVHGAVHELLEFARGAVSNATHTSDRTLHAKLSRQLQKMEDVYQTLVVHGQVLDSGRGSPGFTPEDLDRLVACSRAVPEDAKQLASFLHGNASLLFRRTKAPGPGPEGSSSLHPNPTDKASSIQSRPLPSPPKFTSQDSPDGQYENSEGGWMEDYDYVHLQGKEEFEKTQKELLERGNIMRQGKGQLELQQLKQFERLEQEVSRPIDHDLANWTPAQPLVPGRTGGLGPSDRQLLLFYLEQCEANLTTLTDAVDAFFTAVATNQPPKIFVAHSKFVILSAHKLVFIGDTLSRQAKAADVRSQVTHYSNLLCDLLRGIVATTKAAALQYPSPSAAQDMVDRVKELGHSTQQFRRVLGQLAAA

B1: p130Cas (protein, UniProt Q61140 1-874)
chain: T2 sequence
[1]
  binding: binds
[2]
  binding: binds

B2: LL5-β (protein, UniProt Q8K1N2 1-1249)
chain: MAEDSHMQKQLEFQNGSLEEGFVVRSLENEPQNMMESLSPRKYSSSLKFKANGDYSGSYLTLSQPVSAKRSPSPMGTSVRSSPSLAKIQGSKQFCDGIDKNISMKPPISFLSSAASLGGYPLGKADLDHYTGRDSERSTRLSEKPPYSRYSSRNKSHDSVYFLGGLEGRKTSGSLLTMWNGNSLSCTGSSPISRSGAASMPSSPKQVRKMNLQDHSTLQPRLSRHKEPASENVSVRTRKYSGSSLSNMGAYSRSLPRLYKATDNQMSPLSLPPRSSLGNSRRGQLGEKDLPHSLVDSDNYLNFSSLSSGASPYKTCLSEGNPYVSSALSVPASPRVARKMLLASTSSDDFDRASYSGTSPSHSFISGEPDRVLVARRNFSCGSMELDDSDLESLRQSSETPQPVLRERKSSISSISGRDDLMDYHRRQREERLREQEMERLERQRLETILSLCAEYTKPEGRRLSAGTTVADVQKINKELEKLQLSDEESVFEDALVCPDARYRCHRKGSLQDVDVAGFGNLGHSASFLAPRGSRSDELLGDLTRTPPSSSAAFLKATNESSYLSILPKTPEDIGEEQRTQELAAMEDARMVILNNLEELEQKIKDINDQMDESSRELDMECALLDGEQKSETAELMKEKEILDHLNRKITELEKNIVGEKTKEKVKLDAEREKLERLQELYSEQKTQLDNCPESMREQLQQQLKRDADLLDVESKHFEDLEFQQLEHESRLDEEKENLTQQLLREVAEYQRNIVARKEKISALKKQASHIVQQAQREQDHFVKEKNNLIMMLQREKENLCNLEKKYSSLTGGKGFPINPNTLKEGYISVNEINESCGNSTNLSPSTQFPADADAAVTEPALAVPVSQPQSSEHFRSLEERKKQHKEGLYLSDTLPRKKTTPSLSPHFSSATMGRSTTPKAHLPLGQSNSCGSVLPHSLATMTKDSESRRMLRGYNHQQMSEGQRQKPEFYSRTASESNVYLNSFHYPDRSYKDQAYDTLSLDSSDSMETSISACSPDNISSASTSNIARIEEMERLLKQAHAEKTRLLESREREMEAKKRALEEEKRRREILEKRLQEETSQRQKLIEKEVKIREKQRAQARPLTRYLPVRKEDFDLRSHVETAGHNIDTCFHVSITEKTCRGYLIKMGGKIKTWKKRWFVFDRNKRTFSYYADKHEAKLKGVIYFQAIEEVYYDHLKNANKSPNPLLTFSVKTHDRIYYMVAPSPEAMRIWMDVIVTGAEGYTHFLL
[3]
  binding: binds

B3: PTP-PEST (enzyme, UniProt P35831 1-775)
chain: MEQVEILRRFIQRVQAMKSPDHNGEDNFARDFMRLRRLSTKYRTEKIYPTATGEKEENVKKNRYKDILPFDHSRVKLTLKTPSQDSDYINANFIKGVYGPKAYVATQGPLANTVIDFWRMIWEYNVVIIVMACREFEMGRKKCERYWPLYGEDPITFAPFKISCENEQARTDYFIRTLLLEFQNESRRLYQFHYVNWPDHDVPSSFDSILDMISLMRKYQEHEDVPICIHCSAGCGRTGAICAIDYTWNLLKAGKIPEEFNVFNLIQEMRTQRHSAVQTKEQYELVHRAIAQLFEKQLQLYEIHGAQKIADGNEITTGTMVSSIDSEKQDSPPPKPPRTRSCLVEGDAKEEILQPPEPHPVPPILTPSPPSAFPTVTTVWQDSDRYHPKPVLHMASPEQHPADLNRSYDKSADPMGKSESAIEHIDKKLERNLSFEIKKVPLQEGPKSFDGNTLLNRGHAIKIKSASSSVVDRTSKPQELSAGALKVDDVSQNSCADCSAAHSHRAAESSEESQSNSHTPPRPDCLPLDKKGHVTWSLHGPENATPVPDSPDGKSPDNHSQTLKTVSSTPNSTAEEEAHDLTEHHNSSPLLKAPLSFTNPLHSDDSDSDGGSSDGAVTRNKTSISTASATVSPASSAESACTRRVLPMSIARQEVAGTPHSGAEKDADVSEESPPPLPERTPESFVLADMPVRPEWHELPNQEWSEQRESEGLTTSGNEKHDAGGIHTEASADSPPAFSDKKDQITKSPAEVTDIGFGNRCGKPKGPREPPSEWT
[1]
  binding: binds
[4]
  binding: binds
[2]
  binding: binds

— doi:10.1101/2020.01.24.918458
